Assay results reported in paper PMC5020499, “Crystal structures of archaeal 2-oxoacid:ferredoxin oxidoreductases from Sulfolobus tokodaii” (Scientific Reports, 2016).
These are yes or no findings as the source states them, for the method shown. Some binding calls cover weakened binding; strength is not graded here.

Sequences of proteins named here, by UniProt entry; tags and fusion partners are left off. Residues count along the entry.
UniProt Q96Y68, residues 6-305: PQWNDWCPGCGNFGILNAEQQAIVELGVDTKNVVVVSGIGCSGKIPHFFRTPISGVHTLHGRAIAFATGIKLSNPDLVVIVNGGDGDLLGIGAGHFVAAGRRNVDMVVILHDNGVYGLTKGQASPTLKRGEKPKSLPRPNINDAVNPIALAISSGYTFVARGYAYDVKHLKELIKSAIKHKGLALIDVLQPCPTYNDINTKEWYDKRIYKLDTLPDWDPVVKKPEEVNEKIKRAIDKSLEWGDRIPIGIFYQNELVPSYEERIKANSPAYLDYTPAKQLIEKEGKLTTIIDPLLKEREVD

Target: T1, StOFOR1 a-subunit (STK_23000) (Sulfolobus tokodaii strain 7) (UniProt Q96Y66)
T1 sequence: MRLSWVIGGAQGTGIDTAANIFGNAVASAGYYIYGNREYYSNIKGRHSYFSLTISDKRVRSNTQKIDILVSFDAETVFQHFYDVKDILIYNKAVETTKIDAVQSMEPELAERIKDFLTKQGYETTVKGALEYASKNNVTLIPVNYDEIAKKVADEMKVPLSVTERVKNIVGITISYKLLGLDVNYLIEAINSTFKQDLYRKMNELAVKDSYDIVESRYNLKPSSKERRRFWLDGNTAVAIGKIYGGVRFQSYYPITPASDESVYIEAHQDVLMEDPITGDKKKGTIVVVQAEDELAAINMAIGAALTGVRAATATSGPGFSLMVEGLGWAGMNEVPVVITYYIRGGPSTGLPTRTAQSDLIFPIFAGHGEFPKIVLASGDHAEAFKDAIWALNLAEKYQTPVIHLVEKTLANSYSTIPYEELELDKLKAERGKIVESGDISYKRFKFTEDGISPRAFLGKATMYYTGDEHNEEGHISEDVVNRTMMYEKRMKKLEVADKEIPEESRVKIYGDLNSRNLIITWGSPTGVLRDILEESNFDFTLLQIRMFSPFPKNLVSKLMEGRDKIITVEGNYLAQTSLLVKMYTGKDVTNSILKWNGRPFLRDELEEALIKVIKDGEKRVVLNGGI
Experiment: crystal structure; StOFOR1 co-crystallised with 50 mM 2-oxobutyrate and 1 mM CoA; sitting drop, 25 °C, 15% PEG3350, 0.1 M Tris-HCl pH 8.5, 0.1 M NaBr; 2.5 Å; two protomers in the asymmetric unit; both purified

binding: binds
Substance: StOFOR1 b-subunit (STK_22980) (from UniProt Q96Y68 6-305)
